Laboratory results reported in PMC11432330, “Novel Drug-like HsrA Inhibitors Exhibit Potent Narrow-Spectrum Antimicrobial Activities against Helicobacter pylori” (International Journal of Molecular Sciences, 2024).
This continues a long series; more values of the same kind are listed elsewhere.

Tested on: H. pylori 26695
Experiment: In vivo inhibition of HsrA: RNA-Seq transcriptomic analysis of exposed cells
Assay type: cell-based, Helicobacter pylori
Experimental: Bacterial growth from three blood agar plates of H. pylori ATCC 700392 (aka 26695) incubated for 48 h at 37 °C under microaerobic conditions was aseptically resuspended in BHI + FBS and adjusted to 10^7 CFU/mL. BHI broth cultures were incubated microaerobically at 37 °C for 24 h. […] At this time, bacterial growth was stopped by adding 1.5 mL ice-cold RNA stop solution (95% absolute ethanol, 5% acid-buffered phenol) and subsequently incubated on ice. Control samples were exposed to the same amount of DMSO instead of the inhibitor. Helicobacter cells from all samples were harvested by centrifugation (4000 rpm at 4 °C for 10 min), then the pellets were quickly frozen by immersion in liquid nitrogen and stored at −80 °C.
RNA-Seq analysis was performed by GENEWIZ (Azenta Life Sciences, Leipzig, Germany). Frozen cell pellets from two biological replicates of each treatment condition were properly submitted to GENEWIZ in dry ice. RNA-Seq libraries were prepared according to standard protocols via rRNA depletion, RNA fragmentation and random priming, reverse transcription, 5’-phosphorylation and dA-tailing of cDNAs, adaptor ligation, and PCR enrichment. Once the quality of each library was confirmed, they were sequenced on an Illumina NovaSeq 6000 (Illumina, San Diego, CA, USA) with 150-bp paired-ends. Raw sequence reads were filtered to remove possible adapter sequences and nucleotides with poor quality using Trimmomatic v.0.36 [105]. The trimmed reads were subsequently mapped to the H. pylori strain 26695 reference genome NC_000915.1 available on NCBI, by using the Bowtie2 aligner v.2.2.6 [106]. Unique gene hit counts were calculated by using featureCounts from the Subread package v.1.5.2. Only unique reads that fell within the gene regions were counted. Using DESeq2 [108], a comparison of the gene expression between the control and treated groups of samples was performed. The Wald test was used to generate p-values and log2 fold changes. Genes with an adjusted p-value < 0.05 and absolute log2 fold change >1 were considered as differentially expressed genes (DEGs) for each comparison. The RNA-Seq data generated in this study have been deposited in ArrayExpress with the accession number E-MTAB-14255.

For `NC(=NOC(=O)Nc1ccc(Cl)cc1)c1csc([N+](=O)[O-])c1` [Ligand V, N′-{[(4-chloroanilino)carbonyl]}oxy-5-nitrothiophene-3-carboximidamide], the “log2 Fold Change” value (gene HP0251, exposed to lethal concentrations vs control) was 1.533, the “log2 Fold Change” value (gene HP0252, exposed to lethal concentrations vs control) was -0.703 and the “log2 Fold Change” value (gene HP0255, exposed to lethal concentrations of V vs control) was 0.689. The “log2 Fold Change” value (gene HP0256, exposed to lethal concentration of V vs control) was -1.073, the “log2 Fold Change” value (gene HP0260, exposed to lethal concentrations of V vs control) was 0.900 and the “log2 Fold Change” value (gene HP0261, exposed to lethal concentrations vs control) was 1.452. For the same compound, the “log2 Fold Change” value (gene HP0262, exposed to lethal concentrations vs control) was 1.538, the “log2 Fold Change” value (gene HP0264, exposed to lethal concentrations vs control) was 1.690 and the “log2 Fold Change” value (gene HP0265, exposed to lethal concentrations of V vs control) was 0.976. For the same compound, the “log2 Fold Change” value (gene HP0270, exposed to lethal concentrations vs control) was -0.071, the “log2 Fold Change” value (gene HP0271, exposed to lethal concentrations vs control) was 0.033 and the “log2 Fold Change” value (gene HP0272, exposed to lethal concentrations vs control) was -0.869. For the same compound, the “log2 Fold Change” value (gene HP0273, exposed to lethal concentration of V vs control) was -1.270, the “log2 Fold Change” value (gene HP0274, exposed to lethal concentrations vs control) was -0.769 and the “log2 Fold Change” value (gene HP0275, exposed to lethal concentrations vs control) was -0.055. The “log2 Fold Change” value (gene HP0277, exposed to lethal concentrations vs control) was -0.724, the “log2 Fold Change” value (gene HP0278, exposed to lethal concentrations vs control) was -0.628 and the “log2 Fold Change” value (gene HP0279, exposed to lethal concentrations vs control) was -0.763. For the same compound, the “log2 Fold Change” value (gene HP0280, exposed to lethal concentration of V vs control) was -1.198, the “log2 Fold Change” value (gene HP0284, exposed to lethal concentrations vs control) was -0.801 and the “log2 Fold Change” value (gene HP0286, exposed to lethal concentrations vs control) was 0.009. For the same compound, the “log2 Fold Change” value (gene HP0287, exposed to lethal concentrations vs control) was -0.023, the “log2 Fold Change” value (gene HP0288, exposed to lethal concentrations vs control) was -0.627 and the “log2 Fold Change” value (gene HP0289, exposed to lethal concentrations vs control) was 0.047. For the same compound, the “log2 Fold Change” value (gene HP0299, exposed to lethal concentrations of V vs control) was 0.654, the “log2 Fold Change” value (gene HP0300, exposed to lethal concentrations of V vs control) was 0.931 and the “log2 Fold Change” value (gene HP0301, exposed to lethal concentrations of V vs control) was 0.887. The “log2 Fold Change” value (gene HP0302, exposed to lethal concentrations of V vs control) was 0.500, the “log2 Fold Change” value (gene HP0306, exposed to lethal concentrations vs control) was -0.700 and the “log2 Fold Change” value (gene HP0307, exposed to lethal concentration of V vs control) was -1.080. The “log2 Fold Change” value (gene HP0308, exposed to lethal concentration of V vs control) was -2.061, the “log2 Fold Change” value (gene HP0309, exposed to lethal concentrations vs control) was 1.051 and the “log2 Fold Change” value (gene HP0310, exposed to lethal concentrations vs control) was 2.227. The “log2 Fold Change” value (gene HP0311, exposed to lethal concentrations vs control) was 2.111, the “log2 Fold Change” value (gene HP0312, exposed to lethal concentrations of V vs control) was 0.934 and the “log2 Fold Change” value (gene HP0317, exposed to lethal concentrations vs control) was 1.450. The “log2 Fold Change” value (gene HP0318, exposed to lethal concentrations vs control) was -0.733, the “log2 Fold Change” value (gene HP0323, exposed to lethal concentrations vs control) was 0.108 and the “log2 Fold Change” value (gene HP0324, exposed to lethal concentrations vs control) was -0.008. For the same compound, the “log2 Fold Change” value (gene HP0326, exposed to lethal concentrations vs control) was -0.070, the “log2 Fold Change” value (gene HP0327, exposed to lethal concentration of V vs control) was -1.337 and the “log2 Fold Change” value (gene HP0330, exposed to lethal concentrations vs control) was 1.539. For the same compound, the “log2 Fold Change” value (gene HP0331, exposed to lethal concentrations vs control) was 1.107, the “log2 Fold Change” value (gene HP0333, exposed to lethal concentrations of V vs control) was 0.746 and the “log2 Fold Change” value (gene HP0334, exposed to lethal concentrations of V vs control) was 0.504. The “log2 Fold Change” value (gene HP0337, exposed to lethal concentrations vs control) was -0.759, the “log2 Fold Change” value (gene HP0341, exposed to lethal concentrations of V vs control) was 0.522 and the “log2 Fold Change” value (gene HP0342, exposed to lethal concentrations of V vs control) was 0.938. The “log2 Fold Change” value (gene HP0354, exposed to lethal concentrations vs control) was -0.640, the “log2 Fold Change” value (gene HP0356, exposed to lethal concentration of V vs control) was -1.256 and the “log2 Fold Change” value (gene HP0357, exposed to lethal concentrations vs control) was 1.028. The “log2 Fold Change” value (gene HP0358, exposed to lethal concentrations vs control) was 0.072, the “log2 Fold Change” value (gene HP0362, exposed to lethal concentrations vs control) was -0.779 and the “log2 Fold Change” value (gene HP0366, exposed to lethal concentrations of V vs control) was 0.788. For the same compound, the “log2 Fold Change” value (gene HP0371, exposed to lethal concentration of V vs control) was -1.171, the “log2 Fold Change” value (gene HP0373, exposed to lethal concentrations vs control) was 0.010 and the “log2 Fold Change” value (gene HP0374, exposed to lethal concentrations vs control) was -0.069. The “log2 Fold Change” value (gene HP0375, exposed to lethal concentrations vs control) was -0.048, the “log2 Fold Change” value (gene HP0377, exposed to lethal concentration of V vs control) was -1.365 and the “log2 Fold Change” value (gene HP0378, exposed to lethal concentration of V vs control) was -1.179. For the same compound, the “log2 Fold Change” value (gene HP0379, exposed to lethal concentrations vs control) was -0.769, the “log2 Fold Change” value (gene HP0380, exposed to lethal concentrations vs control) was 1.024 and the “log2 Fold Change” value (gene HP0381, exposed to lethal concentrations of V vs control) was 0.844. The “log2 Fold Change” value (gene HP0382, exposed to lethal concentrations vs control) was 1.070, the “log2 Fold Change” value (gene HP0383, exposed to lethal concentrations vs control) was -0.688 and the “log2 Fold Change” value (gene HP0384, exposed to lethal concentrations of V vs control) was 0.582. The “log2 Fold Change” value (gene HP0387, exposed to lethal concentrations vs control) was -0.650, the “log2 Fold Change” value (gene HP0388, exposed to lethal concentrations of V vs control) was 0.531 and the “log2 Fold Change” value (gene HP0389, exposed to lethal concentrations vs control) was 1.281. For the same compound, the “log2 Fold Change” value (gene HP0390, exposed to lethal concentrations of V vs control) was 0.839, the “log2 Fold Change” value (gene HP0392, exposed to lethal concentrations of V vs control) was 0.889 and the “log2 Fold Change” value (gene HP0394, exposed to lethal concentration of V vs control) was -0.966. For the same compound, the “log2 Fold Change” value (gene HP0395, exposed to lethal concentrations vs control) was -0.644, the “log2 Fold Change” value (gene HP0398, exposed to lethal concentration of V vs control) was -1.123 and the “log2 Fold Change” value (gene HP0404, exposed to lethal concentrations vs control) was -0.086. The “log2 Fold Change” value (gene HP0407, exposed to lethal concentrations vs control) was 1.072, the “log2 Fold Change” value (gene HP0410, exposed to lethal concentration of V vs control) was -1.073 and the “log2 Fold Change” value (gene HP0414, exposed to lethal concentrations vs control) was -0.016. For the same compound, the “log2 Fold Change” value (gene HP0415, exposed to lethal concentrations vs control) was -0.127, the “log2 Fold Change” value (gene HP0419, exposed to lethal concentrations vs control) was -0.107 and the “log2 Fold Change” value (gene HP0422, exposed to lethal concentrations vs control) was 0.145. For the same compound, the “log2 Fold Change” value (gene HP0423, exposed to lethal concentrations of V vs control) was 0.874, the “log2 Fold Change” value (gene HP0424, exposed to lethal concentrations vs control) was 1.411 and the “log2 Fold Change” value (gene HP0425, exposed to lethal concentrations vs control) was 1.149. The “log2 Fold Change” value (gene HP0426, exposed to lethal concentrations vs control) was 1.220, the “log2 Fold Change” value (gene HP0428, exposed to lethal concentrations vs control) was 0.040 and the “log2 Fold Change” value (gene HP0430, exposed to lethal concentrations vs control) was -0.078. The “log2 Fold Change” value (gene HP0431, exposed to lethal concentrations vs control) was 0.064, the “log2 Fold Change” value (gene HP0438, exposed to lethal concentrations vs control) was 1.101 and the “log2 Fold Change” value (gene HP0439, exposed to lethal concentrations vs control) was 2.298. For the same compound, the “log2 Fold Change” value (gene HP0442, exposed to lethal concentrations of V vs control) was 0.900, the “log2 Fold Change” value (gene HP0444, exposed to lethal concentrations vs control) was 1.046 and the “log2 Fold Change” value (gene HP0446, exposed to lethal concentrations vs control) was -0.113. For the same compound, the “log2 Fold Change” value (gene HP0448, exposed to lethal concentrations vs control) was 2.651, the “log2 Fold Change” value (gene HP0451, exposed to lethal concentrations vs control) was 0.142 and the “log2 Fold Change” value (gene HP0453, exposed to lethal concentrations vs control) was 1.019. The “log2 Fold Change” value (gene HP0454, exposed to lethal concentrations vs control) was 1.419, the “log2 Fold Change” value (gene HP0456, exposed to lethal concentrations vs control) was 1.236 and the “log2 Fold Change” value (gene HP0457, exposed to lethal concentrations vs control) was 1.085. The “log2 Fold Change” value (gene HP0459, exposed to lethal concentrations of V vs control) was 0.800, the “log2 Fold Change” value (gene HP0463, exposed to lethal concentrations vs control) was -0.006 and the “log2 Fold Change” value (gene HP0466, exposed to lethal concentration of V vs control) was -1.757. The “log2 Fold Change” value (gene HP0468, exposed to lethal concentrations of V vs control) was 0.758, the “log2 Fold Change” value (gene HP0470, exposed to lethal concentrations of V vs control) was 0.943 and the “log2 Fold Change” value (gene HP0471, exposed to lethal concentrations vs control) was 0.057. For the same compound, the “log2 Fold Change” value (gene HP0473, exposed to lethal concentrations vs control) was -0.745, the “log2 Fold Change” value (gene HP0475, exposed to lethal concentrations vs control) was -0.101 and the “log2 Fold Change” value (gene HP0477, exposed to lethal concentrations vs control) was -0.077. For the same compound, the “log2 Fold Change” value (gene HP0478, exposed to lethal concentrations of V vs control) was 0.596, the “log2 Fold Change” value (gene HP0480, exposed to lethal concentrations of V vs control) was 0.516 and the “log2 Fold Change” value (gene HP0484, exposed to lethal concentrations vs control) was -0.039. For the same compound, the “log2 Fold Change” value (gene HP0486, exposed to lethal concentrations of V vs control) was 0.541, the “log2 Fold Change” value (gene HP0487, exposed to lethal concentrations vs control) was -0.670 and the “log2 Fold Change” value (gene HP0488, exposed to lethal concentrations vs control) was 2.617. The “log2 Fold Change” value (gene HP0489, exposed to lethal concentrations vs control) was 0.104, the “log2 Fold Change” value (gene HP0490, exposed to lethal concentration of V vs control) was -1.773 and the “log2 Fold Change” value (gene HP0492, exposed to lethal concentration of V vs control) was -1.353. For the same compound, the “log2 Fold Change” value (gene HP0495, exposed to lethal concentration of V vs control) was -1.090 and the “log2 Fold Change” value (gene HP0497, exposed to lethal concentrations of V vs control) was 0.778.
